Data: PubChem BioAssay AID2685 (National Center for Advancing Translational Sciences (NCATS), 2010)
About 2,100 (0.66%) of roughly 320,000 compounds were called active. The inconclusive results got no clear call from the source; some entries with a clear call stand among them for comparison. The call rests on the fitted dose curve; in most records, active means well fitted inhibition curve with a large enough effect in the signal ratio, with a control signal flat (not every such curve was filed as active); inconclusive means small, poorly fitted or top-dose-only effect, or effect the other way, or a change in a side signal; inactive means flat fitted curve, though single readings scatter; the % refers to the signal ratio. Potencies of inconclusive entries are doubtful fits and often do not repeat.

Experiment: qHTS Assay for Lipid Storage Modulators in Drosophila S3 Cells
Conditions: BODIPY lipid droplet fluorescence, 18-24 h, cells fed with added oleic acid; lipid storage change, negative = inhibition: at 46.1 µM (top of the series) unless noted
How it was run: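 Drosophila S3 cells got compounds at several concentrations plus oleic acid (400 uM solution). Laser-scanning cytometry with 488 nm excitation read lipid droplets at 500-530 nm and cells at 575-640 nm. Percent activity was relative to 20 uM Triacsin C.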
On the % scale 0 is the no-effect control and ±100 the full control effect; potency means the concentration at half of the fitted maximal effect.

Row | SMILES | Potency | lipid storage change, negative = inhibition
1 | O=C(CN1C(=O)c2ccccc2C1=O)Nc1cccc(S(=O)(=O)Nc2ccccc2Cl)c1 | inconclusive: 1.64 µM [falling, partial curve] | 
2 | Cc1ccc(C2(C)CC(C)(C)N(C(=O)CSc3nnc(C)s3)c3ccccc32)cc1 (stereo not drawn) | inconclusive: 1.16 µM [falling, single point] | 
3 | Cc1ccc(CNC(=O)c2ccc(CNS(=O)(=O)c3ccc4c(c3)C(C)(C)C(=O)N4C)cc2)o1 |  | inconclusive: 52.7%
4 | COc1ccc(/C=C(\NC(=O)c2ccc(C)cc2)C(=O)NCCCn2ccnc2)cc1OC | inconclusive: 0.651 µM [falling, single point] | 
5 | CCn1c(SCC(=O)NC2CC2)nnc1-c1ccccn1 |  | inconclusive: -35.3%
6 | O=C(Nc1ccccc1)c1cccc(N2C(=O)C3C4C=CC(C5CC45)C3C2=O)c1 (stereo not drawn) | active: 16.4 µM | 
7 | O=C(COc1coc(CN2CCN(c3ccccc3F)CC2)cc1=O)Nc1ccccc1 | inconclusive: 14.6 µM [activator, partial curve] | 
8 | CC(NC(=O)COc1ccc(Br)cc1)C(=O)O (stereo not drawn) |  | inconclusive: 16.1%
9 | Cc1cc(Br)c(Cl)cc1NC(=O)CN1C(=O)C2C3CC(c4ccccc4)C(C3)C2C1=O (stereo not drawn) |  | inconclusive: 14.3%
10 | Cc1cc(C)cc(NC(=O)COc2coc(CN3CCN(c4ccccc4)CC3)cc2=O)c1 |  | inconclusive: -84%
11 | O=C1CCCc2nc3nc4ccccc4n3cc21 |  | inconclusive: -109%
12 | COCCn1c(SCCCc2ccccc2)nc2c1c(=O)[nH]c(=O)n2C | inconclusive: 0.58 µM [activator, full curve] | 
13 | COc1ccccc1Oc1ccc(N2CC(C(=O)OCC(=O)c3ccccc3)CC2=O)cc1 (stereo not drawn) |  | inconclusive: 54.7%
14 | O=C(CCc1n[nH]c(=O)[nH]c1=O)N/N=C/c1ccco1 |  | inconclusive: -18.5%
15 | O=C(NCc1ccc(F)cc1)C1CC(=O)N(Cc2ccco2)C1 (stereo not drawn) |  | inconclusive: -0.221%
16 | COc1ccccc1-n1ccnc1SCC(=O)NC(C)(C)C |  | inconclusive: -15.3%
17 | Cc1ccccc1-c1c(C)oc2cc(O)ccc2c1=O |  | inconclusive: 3.59%
18 | CCOc1cc(/C=C2\C(=O)ON=C2c2ccccc2)cc(Br)c1O |  | inconclusive: -29.5%
19 | O=C(NCc1nnnn1-c1ccc(F)c(F)c1)c1ccc2c(c1)OCO2 |  | inconclusive: -5.14%
20 | COc1cccc(C(=O)NC(C)C(c2cccs2)N2CCOCC2)c1 (stereo not drawn) |  | inconclusive: 39.7%
21 | Cc1cccc(Nc2nc(N3CCOCC3)nc(N3CCOCC3)n2)c1 |  | inconclusive: 1.71%
22 | Cn1nc(-c2ccc(Cl)cc2)c2cc(C(=O)N3CCN(c4ccccc4)CC3)sc21 |  | inconclusive: -12.7% [at 9.22 µM]
23 | CC1CCCCC1NC(=O)c1ccc(S(=O)(=O)NCc2ccco2)cc1 (stereo not drawn) |  | inconclusive: -16%
24 | Cc1onc(-c2ccccc2)c1C(=O)Nc1ccc(-c2nnc3n2CCCCC3)cc1 |  | inconclusive: 2.49%
25 | Cc1ccc(C(=O)Nc2ccc(-c3csc(C)n3)cc2)cc1 |  | inconclusive: 23.1%
26 | CNC(=O)CCc1ccc(OC)cc1 |  | inconclusive: -21.8%

Single records, as listed above:
COc1cccc(C(=O)NC(C)C(c2cccs2)N2CCOCC2)c1 (stereo not drawn) in the list: lipid storage change, negative = inhibition: inconclusive: 39.7%
CCOc1cc(/C=C2\C(=O)ON=C2c2ccccc2)cc(Br)c1O in the list: lipid storage change, negative = inhibition: inconclusive: -29.5%
COc1ccc(/C=C(\NC(=O)c2ccc(C)cc2)C(=O)NCCCn2ccnc2)cc1OC in the list: Potency: inconclusive: 0.651 µM [falling, single point]
CCn1c(SCC(=O)NC2CC2)nnc1-c1ccccn1 in the list: lipid storage change, negative = inhibition: inconclusive: -35.3%

Following part:

Row | SMILES | Potency | lipid storage change, negative = inhibition
27 | CN1/C(=C\C(=O)COC(=O)c2ccccc2O)C(C)(C)c2ccccc21 | inconclusive: 29.1 µM [cytotoxic, single point] | 
28 | O=C1N=C(N2CCCCC2)S/C1=C\c1cn[nH]c1-c1ccccc1 | inconclusive: 20.6 µM [activator, single point] | 
29 | O=C(CSc1nnc(-c2ccc(Cl)cc2)n1-c1ccc(Cl)cc1)N/N=C/c1ccccc1C(=O)O |  | inconclusive: 2.17%
30 | CCN1CCCC1CNCc1ccc(Cl)cc1Cl (stereo not drawn) | active: 7.31 µM | 
31 | CCC(C)c1ccc(OCC(=O)Nc2ccc3[nH]c(=O)[nH]c3c2)cc1 (stereo not drawn) | inconclusive: 29.1 µM [activator, single point] | 
32 | Cc1[nH]nc(-c2ccc(OCc3cnn(-c4ccccc4)c3)c(C)c2O)c1Oc1ccccc1 | inconclusive: 29.1 µM [falling, single point] | 
33 | CCCCOc1ccc(C(=O)NCC(=O)NCc2ccncc2)cc1 |  | inconclusive: 14.2%
34 | O=C(NN=C1CCCC1)c1[nH]c2ccc(Br)cc2c1-c1ccccc1 | inconclusive: 29.1 µM [cytotoxic, single point] | 
35 | O=C(N/N=C/c1[nH]c2ccccc2c1Cl)c1cccc(Br)c1 |  | inconclusive: -38.1%
36 | COc1ccc(N=C2SC(C(=O)N3CCN(c4ccc([N+](=O)[O-])cc4)CC3)CC(=O)N2C)cc1 (stereo not drawn) |  | inconclusive: -46.5%
37 | CC[C@H](C)[C@H](NC(N)=O)C(=O)NCCc1ccc(Cl)cc1 |  | inconclusive: -44%
38 | C=CCNC(=O)C1CC(=O)N(c2ccc(OCC(=O)Nc3c(C)cccc3C)cc2)C1 (stereo not drawn) |  | inconclusive: 40.9%
39 | COc1cccc(C(=O)Nc2cc(OC)ccc2NC(=O)c2ccco2)c1 | inconclusive: 7.31 µM [falling, partial curve] | 
40 | O=C(C[n+]1ccccc1)Nc1ccccc1[N+](=O)[O-] | inconclusive: 8.2 µM [activator, partial curve] | 
41 | COc1ccc(NC(=O)CN(C)C(=O)CSCc2ccc(C)cc2)cc1 | active: 10.3 µM | 
42 | Cc1cc(C)nc(Nc2cc([N+](=O)[O-])ccc2C)n1 | inconclusive: 20.6 µM [rising, single point] | 
43 | Cc1c(C(c2cccs2)c2c(C)n(C)n(-c3ccccc3)c2=O)c(=O)n(-c2ccccc2)n1C |  | inconclusive: -15.2%
44 | Cc1cc(C)cc(Nc2ncc3c(n2)CC(c2ccco2)CC3=O)c1 (stereo not drawn) |  | inconclusive: 18.8%
45 | Cn1cnc2cc(NC(=O)c3ccco3)ccc21 |  | inconclusive: 47.3%
46 | Cc1ccc(S(=O)(=O)NC(C)(C)CSc2ccccn2)cc1 |  | inconclusive: 57.9%
47 | CC(=O)Nc1ccc(Nc2ccc([N+](=O)[O-])cn2)cc1 | inconclusive: 18.4 µM [activator, partial curve] | 
48 | CCN(CC)CC(=O)NCC1(c2ccccc2)CCOCC1 |  | inconclusive: -0.41%
49 | CCCSc1ccc([C@@H]2[C@@H]3C(=O)N(C)C(=O)[C@@H]3[C@]3(C(=O)OC)CCCN23)cc1OC | inconclusive: 0.146 µM [falling, full curve, poor fit] | 
50 | COc1ccc(NC(=O)CCC(=O)Nc2nnc(CC(C)C)s2)cc1Cl | inconclusive: 29.1 µM [activator, single point] | 
51 | Cc1ccccc1-n1nnnc1SCC(=O)Nc1ccc(S(=O)(=O)N2CCCC2)cc1 |  | inconclusive: 42.6%
52 | Cc1sc2ncn(CC(=O)NCCCC(=O)N3CCC(C)CC3)c(=O)c2c1C |  | inconclusive: 176%

Row | SMILES | Potency | lipid storage change, negative = inhibition
53 | O=C(CCNC(=O)c1ccccc1Cl)NCC1COc2ccccc2O1 (stereo not drawn) |  | inconclusive
54 | Cc1ccc2c(c1)C1CN(C)CCC1N2S(=O)(=O)c1ccc(C(C)C)cc1 (stereo not drawn) |  | inconclusive: 10.9%
55 | Cc1cc(C)nc(NC(=O)c2ccc(Br)s2)n1 |  | inconclusive: 1.39%
56 | CCOc1cc(NCCN2CCOCC2)c([N+](=O)[O-])cc1OCC |  | inconclusive: 16.1%
57 | CCOc1ccc(N(CC(=O)NC(C)(C)C)C(=O)CCC(=O)Nc2nccs2)cc1 |  | inconclusive: -31.7%
58 | O=C(NCc1ccco1)c1cc(-c2ccc3c(c2)OCO3)on1 | inconclusive: 0.103 µM [activator, full curve, poor fit] | 
59 | COc1ccc(OC)c(C(=O)NC(CC(N)=O)c2ccc(NCC3CC3)c([N+](=O)[O-])c2)c1 (stereo not drawn) |  | inconclusive: -13.4%
60 | Cc1ccsc1/C=C/c1n[nH]c(=O)c(C#N)c1C |  | inactive
61 | O=C(Nc1nnc(SCc2ccc(Cl)cc2)s1)C1CCCO1 (stereo not drawn) | inconclusive: 0.116 µM [falling, full curve, poor fit] | 
62 | Cc1[nH]c(=O)c(C#N)c(C)c1CCC(=O)NCc1cccc(C(F)(F)F)c1 | inconclusive: 0.146 µM [falling, partial curve, poor fit] | 
63 | COc1ccccc1NC(=O)COc1ccc(C(=O)OCC(=O)N2CCCC2=O)cc1OC |  | inconclusive: 8.27%
64 | CN(Cc1ccccc1F)C(=O)CCCNC(=O)c1ccc(Cl)cc1 |  | inconclusive: -41%
65 | COc1ccc(Cn2ccnc2SCC(=O)NC2CCCCC2)cc1 |  | inconclusive: -8.77%
66 | CC(=O)CC(=O)Nc1ccc(C(N)=O)cc1 |  | inconclusive: -7.82%
67 | Cc1ccc(C2=NOC(C)(c3nnc(-c4ccc(Cl)cc4)o3)C2)cc1 (stereo not drawn) |  | inconclusive: 18.5%
68 | CC1CCCN(C(=O)C(=O)c2cn(CC(=O)N3CCCCCC3)c3ccccc23)C1 (stereo not drawn) |  | inconclusive: -26.6%
69 | Cc1ccc2[nH]c3c(c2c1)CN(C(=O)CN1CCN(c2ccccn2)CC1)CC3 |  | inconclusive: 63.2%
70 | COc1ccccc1-c1nc(SCC(=O)N2CCOCC2)n[nH]1 |  | inconclusive: 4.74%
71 | Nc1cc(N)nc(SCC(=O)NCCC2=CCCCC2)n1 |  | inconclusive: -5.51%
72 | O=C(CSc1nncs1)NC1CCCCCCC1 | inconclusive: 25.9 µM [activator, single point] | 
73 | CC(C)CCN1C(=O)c2ccc(C(=O)Nc3cc(C(=O)O)cc(C(=O)O)c3)cc2C1=O |  | inconclusive: 32.4%
74 | O=C(Nc1ccc2c(c1)CCC2)Nc1ccc(F)cc1F |  | inconclusive: -11.8%
75 | O=C(NCc1ccccn1)c1ccc2ccccc2n1 | inconclusive: 11.6 µM [activator, partial curve] | 
76 | CCCn1c(SCC(=O)NCCc2ccc(Cl)cc2Cl)n[nH]c1=O |  | inconclusive: -7.5%
77 | COc1cc(Cl)c(C)cc1NC(=O)CSC |  | inconclusive: -0.0156%
78 | CC(C)n1cnnc1SCC(=O)Nc1ccc(N2CCCCC2)cc1 | inconclusive: 1.84 µM [rising, partial curve] | 
